Data as given in PubChem BioAssay AID504805 (Drosophila RNAi Screening Center, 2011).

- Screen: 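Genome-wide fly cell screen for factors exporting mRNA from the nucleus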 (primary screen)
- Cell system: Drosophila S2R+ cells
- Reagent: long dsRNA against Drosophila genes, 0.25 µg dsRNA per well
- Timing: 4 days
- Detection: 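Microscope images of cells stained for poly(A) RNA with a fluorescent oligo-dT probe and for DNA, assessed visually, with a phenotype description given for each replicate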
This is not the whole library: the list holds selected reagents. 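Phenotypes are words from visual inspection of images, not measured scores.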 A plus sign joins genes that one reagent is predicted to hit.

gene,amplicon,"phenotype, replicate 1","phenotype, replicate 2"
jim,DRSC11889,poly(A) RNA held back in the nucleus,
Hpd,DRSC11670,poly(A) RNA held back in the nucleus,
CG10841,DRSC14271,poly(A) RNA held back in the nucleus,
CG34396,DRSC04245,poly(A) RNA held back in the nucleus,
CG6791,DRSC16118,poly(A) RNA held back in the nucleus,
Syx17,DRSC08591,poly(A) RNA held back in the nucleus,
RpL22,DRSC18707,poly(A) RNA held back in the nucleus,poly(A) RNA held back in the nucleus
Cnx99A + Cnx14D,DRSC16610,poly(A) RNA held back in the nucleus,
svp,DRSC15311,poly(A) RNA held back in the nucleus,
CG12236,DRSC17830,poly(A) RNA held back in the nucleus,poly(A) RNA held back in the nucleus
CG12236,DRSC17831,poly(A) RNA held back in the nucleus,
CG3795,DRSC18593,poly(A) RNA held back in the nucleus,
CG32055,DRSC10666,poly(A) RNA held back in the nucleus,
Sulf1,DRSC16874,poly(A) RNA held back in the nucleus,
Smu1,DRSC15803,poly(A) RNA held back in the nucleus,poly(A) RNA held back in the nucleus
cbt,DRSC00655,poly(A) RNA held back in the nucleus,
CG17260,DRSC00497,poly(A) RNA held back in the nucleus,
CG15464 (retired record),DRSC22086,poly(A) RNA held back in the nucleus,
Med,DRSC16737,poly(A) RNA held back in the nucleus,
RpS7,DRSC15394,poly(A) RNA held back in the nucleus,
CG31688 + CG31687,DRSC02116,poly(A) RNA held back in the nucleus,
Msp300,DRSC00854,poly(A) RNA held back in the nucleus,
SmF,DRSC07397,poly(A) RNA held back in the nucleus,poly(A) RNA held back in the nucleus
Dph3,DRSC14923,poly(A) RNA held back in the nucleus,poly(A) RNA held back in the nucleus
Setd3,DRSC18269,poly(A) RNA held back in the nucleus,
bru1,DRSC01236,poly(A) RNA held back in the nucleus,
RpL36,DRSC18708,poly(A) RNA held back in the nucleus,
Ppcs,DRSC14127,poly(A) RNA held back in the nucleus,
CG14839,DRSC14963,poly(A) RNA held back in the nucleus,
CG15577,DRSC18065,poly(A) RNA held back in the nucleus,
CG33270,DRSC10584,poly(A) RNA held back in the nucleus,
Shmt,DRSC18264,poly(A) RNA held back in the nucleus,
CG32248,DRSC08102,poly(A) RNA held back in the nucleus,
CG3078,DRSC18531,poly(A) RNA held back in the nucleus,
CR13656,DRSC13705,poly(A) RNA held back in the nucleus,
luna,DRSC06663,poly(A) RNA held back in the nucleus,
iPLA2-VIA,DRSC10699,poly(A) RNA held back in the nucleus,
CG42700,DRSC06292,poly(A) RNA held back in the nucleus,poly(A) RNA held back in the nucleus
CG3857,DRSC18542,poly(A) RNA held back in the nucleus,
CG13743,DRSC06414,poly(A) RNA held back in the nucleus,poly(A) RNA held back in the nucleus
CG9760,DRSC11101,poly(A) RNA held back in the nucleus,
Arl5,DRSC10785,poly(A) RNA held back in the nucleus,
mid,DRSC02977,poly(A) RNA held back in the nucleus,
CG5013,DRSC15695,poly(A) RNA held back in the nucleus,
RpS3A,DRSC17168,poly(A) RNA held back in the nucleus,poly(A) RNA held back in the nucleus
Uhg2 + snoRNA:Me18S-G1620 + snoRNA:U14:30Ea,DRSC01100,poly(A) RNA held back in the nucleus,
Usp2,DRSC20633,poly(A) RNA held back in the nucleus,
CG9646,DRSC07342,poly(A) RNA held back in the nucleus,
CG3566,DRSC18311,poly(A) RNA held back in the nucleus,
S1P,DRSC11810,poly(A) RNA held back in the nucleus,
CG13561,DRSC04199,poly(A) RNA held back in the nucleus,
RpL31,DRSC06716,poly(A) RNA held back in the nucleus,cells look to be dying
Spt6,DRSC18836,poly(A) RNA held back in the nucleus,
Prosbeta6,DRSC11256,poly(A) RNA held back in the nucleus,
CG7384,DRSC03053,poly(A) RNA held back in the nucleus,
CG2921,DRSC04324,poly(A) RNA held back in the nucleus,poly(A) RNA held back in the nucleus
Rbp4,DRSC16818,poly(A) RNA held back in the nucleus,
Mob2,DRSC09119,poly(A) RNA held back in the nucleus,
tho2,DRSC00646,poly(A) RNA held back in the nucleus,
Cap-G,DRSC21805,poly(A) RNA held back in the nucleus,poly(A) RNA held back in the nucleus
RPA1,DRSC16830,poly(A) RNA held back in the nucleus,
CG34002,DRSC11953,poly(A) RNA held back in the nucleus,
CG17211,DRSC02587,poly(A) RNA held back in the nucleus,
z,DRSC18855,poly(A) RNA held back in the nucleus,poly(A) RNA held back in the nucleus
Rbf2,DRSC16816,poly(A) RNA held back in the nucleus,
E5,DRSC16585,poly(A) RNA held back in the nucleus,
CG7611,DRSC11840,poly(A) RNA held back in the nucleus,
soti,DRSC16432,poly(A) RNA held back in the nucleus,
CG34452,DRSC09387,poly(A) RNA held back in the nucleus,
CG12009,DRSC08217,poly(A) RNA held back in the nucleus,
CG7333,DRSC16229,poly(A) RNA held back in the nucleus,
CSN4,DRSC07350,poly(A) RNA held back in the nucleus,
Gbs-76A,DRSC11081,poly(A) RNA held back in the nucleus,
CG34149,DRSC14537,poly(A) RNA held back in the nucleus,
lncRNA:CR32657,DRSC19403,poly(A) RNA held back in the nucleus,
eRF1,DRSC11779,poly(A) RNA held back in the nucleus,
chinmo,DRSC00485,poly(A) RNA held back in the nucleus,
CG30376,DRSC05086,poly(A) RNA held back in the nucleus,poly(A) RNA held back in the nucleus
Syngr,DRSC06003,poly(A) RNA held back in the nucleus,
Crag,DRSC18454,poly(A) RNA held back in the nucleus,
RpL9,DRSC03418,poly(A) RNA held back in the nucleus,
Tis11,DRSC20293,poly(A) RNA held back in the nucleus,
PpY-55A,DRSC23328,poly(A) RNA held back in the nucleus,
CycT,DRSC11124,poly(A) RNA held back in the nucleus,
Snrk,DRSC23332,poly(A) RNA held back in the nucleus,
CG34347,DRSC14305,poly(A) RNA held back in the nucleus,
CG33095,DRSC14441,poly(A) RNA held back in the nucleus,
Fmo-2,DRSC04983,poly(A) RNA held back in the nucleus,
CG3124,DRSC04339,poly(A) RNA held back in the nucleus,
mtd,DRSC12381,poly(A) RNA held back in the nucleus,
CG31126,DRSC14623,poly(A) RNA held back in the nucleus,poly(A) RNA held back in the nucleus
CG9706,DRSC11095,poly(A) RNA held back in the nucleus,
CG5543,DRSC04511,poly(A) RNA held back in the nucleus,
CG9368,DRSC11067,poly(A) RNA held back in the nucleus,
trr,DRSC23290,poly(A) RNA held back in the nucleus,
CG15202,DRSC19649,poly(A) RNA held back in the nucleus,
ocn,DRSC17020,poly(A) RNA held back in the nucleus,
CG15740,DRSC19706,poly(A) RNA held back in the nucleus,
RabGGTb,DRSC00804,poly(A) RNA held back in the nucleus,
eas,DRSC20329,poly(A) RNA held back in the nucleus,
CG31368,DRSC14951,poly(A) RNA held back in the nucleus,
dnt,DRSC03522,poly(A) RNA held back in the nucleus,
CG42588,DRSC09820,poly(A) RNA held back in the nucleus,
CG17803,DRSC22811,poly(A) RNA held back in the nucleus,
Alg9,DRSC14407,poly(A) RNA held back in the nucleus,

8 entries from above, set out differently.
gene | amplicon | phenotype, replicate 1 | phenotype, replicate 2
CG5543 | DRSC04511 | poly(A) RNA held back in the nucleus | –
CG9368 | DRSC11067 | poly(A) RNA held back in the nucleus | –
trr | DRSC23290 | poly(A) RNA held back in the nucleus | –
CG15202 | DRSC19649 | poly(A) RNA held back in the nucleus | –
ocn | DRSC17020 | poly(A) RNA held back in the nucleus | –
CG15740 | DRSC19706 | poly(A) RNA held back in the nucleus | –
RabGGTb | DRSC00804 | poly(A) RNA held back in the nucleus | –
eas | DRSC20329 | poly(A) RNA held back in the nucleus | –
